# Laboratory results published in PMC7819943, “Rice protein-binding microarrays: a tool to detect cis-acting elements near promoter regions in rice”.
# The list shows a part of the results.
# Biological target: T1, OsSMF1 (Oryza sativa, UniProt Q6ZLB0 1-436)
# T1 sequence: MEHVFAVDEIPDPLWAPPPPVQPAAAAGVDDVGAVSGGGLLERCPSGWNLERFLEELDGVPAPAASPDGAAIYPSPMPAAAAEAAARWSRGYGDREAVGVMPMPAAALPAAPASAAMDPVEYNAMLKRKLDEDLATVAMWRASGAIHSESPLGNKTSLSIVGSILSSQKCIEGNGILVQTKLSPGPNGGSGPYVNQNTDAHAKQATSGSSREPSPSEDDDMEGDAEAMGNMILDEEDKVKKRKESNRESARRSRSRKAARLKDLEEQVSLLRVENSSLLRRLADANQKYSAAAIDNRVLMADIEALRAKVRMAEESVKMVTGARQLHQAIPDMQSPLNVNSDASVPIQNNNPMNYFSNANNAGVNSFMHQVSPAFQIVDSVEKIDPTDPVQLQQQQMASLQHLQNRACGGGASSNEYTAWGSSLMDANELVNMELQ
# Assay: protein-binding microarray (RPBM); PBS, 2% BSA, 51.3 ng/ul salmon testes DNA, 50 uM zinc acetate, 200 nM TF, 25 C, 1 h; high values mean tight binding
# Settings: protein: recombinant; tags: N-terminal polyhistidine and DsRed monomer fusion (pET32a); chain copies: 2; label: CyDye5-dUTP incorporated in the synthesized complementary strand; 3' TTTTT single-stranded linker to array surface; dsDNA, one strand shown
# In short: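 For the binding signal, per-feature fluorescence intensity was read in arbitrary units on an Axon 4000B scanner. Before scanning, a 2% BSA-blocked custom Agilent array made double-stranded with Cy5-dUTP was washed after 1 h at 25 °C with 200 nM protein and 50 µM zinc acetate. The proteins were Ni–NTA-purified transcription factors with N-terminal polyhistidine and DsRed fusions, expressed in E. coli BL21-CodonPlus.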
row,Sequence,binding signal
1,GTTTTCGCTTGTACTTCACAGGCTGATCACGGTCAGTACTCGGAGTCACCTAGTGCAG,48700 fluorescence intensity (a.u.)
2,TAGCCTAAAAGTTCCAAACACGTGAGCTATTTCAGGGCTACGGAGTCACCTAGTGCAG,3790 fluorescence intensity (a.u.)
3,ATGGACAACTACGTTGGCGCCAAGACCAGTCACACATGCTCGGAGTCACCTAGTGCAG,3710 fluorescence intensity (a.u.)
4,GGCTGATCCACCCGGCCACGCGGTACGTGACGCGGGGCTTCGGAGTCACCTAGTGCAG,4250 fluorescence intensity (a.u.)
5,GCAGCACAGCCTGTGTGTCACCACTCACCAGGGAGGAGGCCGGAGTCACCTAGTGCAG,6070 fluorescence intensity (a.u.)
6,GAATCCCTGCTTTGAGATCGACGTGTACTCTCCCTCCCTGCGGAGTCACCTAGTGCAG,4340 fluorescence intensity (a.u.)
7,AATTACATAATTTTAATACGAAGATGAATGATCAAATATACGGAGTCACCTAGTGCAG,56600 fluorescence intensity (a.u.)
8,TCCCTTCCCTGTTCCTGGCGACGTGTCACCTTCTTATTCGCGGAGTCACCTAGTGCAG,11000 fluorescence intensity (a.u.)
9,CAATAGACTTCAAGGAAGCATACCAATACCAGTAACCACACGGAGTCACCTAGTGCAG,40800 fluorescence intensity (a.u.)
10,ATAGGTTCTTTTATCAGTGTCACTGACACTTACATCGATGCGGAGTCACCTAGTGCAG,4550 fluorescence intensity (a.u.)
11,AGAGAACTCAAGAAGCAACTGGTCCAAGTCAGCCTTCTTGCGGAGTCACCTAGTGCAG,9350 fluorescence intensity (a.u.)
12,TTTTATATTCCCAATTAGAGTTGTAAGAAAATTATATGGCCGGAGTCACCTAGTGCAG,3800 fluorescence intensity (a.u.)
13,GTGGGCGCGTCCACGGCCCACACTAGTCTACCACTACTGTCGGAGTCACCTAGTGCAG,3810 fluorescence intensity (a.u.)
14,CCGACGCGTGGCCACAACGTGTCGTCGACCTCGGTTTCCCCGGAGTCACCTAGTGCAG,4420 fluorescence intensity (a.u.)
15,TAGTTTCCGAGGGAGGGAGAGAGAGACAGCGTGGTATGGACGGAGTCACCTAGTGCAG,4680 fluorescence intensity (a.u.)
16,ATATGGTAATACCAAAGTTAAATACTTCTATGGAAATTCCCGGAGTCACCTAGTGCAG,8700 fluorescence intensity (a.u.)
17,AATTTCATGTCATCGTGCACGTGGCGTGCCACGTAGGCAACGGAGTCACCTAGTGCAG,36100 fluorescence intensity (a.u.)
18,CCAACTACTCCTCCACCTCTTACCTGACATGTAATAAGCGCGGAGTCACCTAGTGCAG,3750 fluorescence intensity (a.u.)
19,CACGCCACCCCACCGCGCCGCGCGCGCGACGATAGGTCGACGGAGTCACCTAGTGCAG,6300 fluorescence intensity (a.u.)
20,GATTCTACTGCCCCGTTGACTAATTGTCTTCGTCAGGATCCGGAGTCACCTAGTGCAG,4160 fluorescence intensity (a.u.)
21,TGATTTGATGACTAGGTGGCACGTAGGCGCCAAGTCAGCACGGAGTCACCTAGTGCAG,22500 fluorescence intensity (a.u.)

row,Sequence,binding signal
1,CATAATTATGTGTGTGGTCATCATTGAGAAATGGCTTGTCCGGAGTCACCTAGTGCAG,5500 fluorescence intensity (a.u.)
2,GCGCAGTTCCTCGCCAACACCATGTCGCCGCTGCTCGCCACGGAGTCACCTAGTGCAG,3140 fluorescence intensity (a.u.)
3,TTCTTTTCTTCTTTGAAACGGACCGTCTTTGTATTTTCGGCGGAGTCACCTAGTGCAG,28900 fluorescence intensity (a.u.)
4,TAGTTAGAATCCTAAGATATGCTGACTAAGTATATACTCTCGGAGTCACCTAGTGCAG,6760 fluorescence intensity (a.u.)
5,GGCGTGGGTTCGTGCGACGGGACCTCGATTCGTCCATCCACGGAGTCACCTAGTGCAG,5150 fluorescence intensity (a.u.)
6,TGCTCCAAAAGCATAAGAAATGTGTCATGGCTGAGTCATGCGGAGTCACCTAGTGCAG,12000 fluorescence intensity (a.u.)
7,GTTATCTCTGATTGCAACATCTTGCCGTGTCCACCGCTGTCGGAGTCACCTAGTGCAG,4010 fluorescence intensity (a.u.)
8,CTGTTGTTCGACGCTTGGAGCTCCTCGTGCTCACGTTTCACGGAGTCACCTAGTGCAG,3460 fluorescence intensity (a.u.)
9,GTGCACACGCATCGTGGGAGTCGCCCCGTCCACGTCACCCCGGAGTCACCTAGTGCAG,31600 fluorescence intensity (a.u.)
10,TCTTCCACCAGCGCCTCCCTTACACGCTTCACTGACAGTGCGGAGTCACCTAGTGCAG,3230 fluorescence intensity (a.u.)
11,GATTCACCGGCGAAATGACGTGACTGTTTCACCTAGGATGCGGAGTCACCTAGTGCAG,6080 fluorescence intensity (a.u.)
12,CTCGCTGCTTCGCCCGCCACGTCACCCTCCTCCTCCTCCCCGGAGTCACCTAGTGCAG,62000 fluorescence intensity (a.u.)
13,CACACACACGCGTAGCACTAGTACTCTCTCTCTCTCTCTGCGGAGTCACCTAGTGCAG,3220 fluorescence intensity (a.u.)
14,CAAGTGATTTTGCTTACGGGGCCCGATGACCCATCAAGTTCGGAGTCACCTAGTGCAG,3360 fluorescence intensity (a.u.)
15,CCAACCATTCACACCTCCCTCTGGTTAACTTAGTTATTGTCGGAGTCACCTAGTGCAG,3140 fluorescence intensity (a.u.)
16,TAACGATTTGCCACGCTCTGTCAATGACACGTGGGCCCTCCGGAGTCACCTAGTGCAG,17000 fluorescence intensity (a.u.)
17,TGCACCGGTGCAAGTGTGGGAGGGGTGTTGTACGTCGCTACGGAGTCACCTAGTGCAG,3540 fluorescence intensity (a.u.)
18,ACATGTCGATGAGTAGATTTCCACAAGTCTAATAAAAGACCGGAGTCACCTAGTGCAG,33400 fluorescence intensity (a.u.)
19,TTCTGCGAATTTCCTCTGACATGGAGTAATACACCTACTTCGGAGTCACCTAGTGCAG,3480 fluorescence intensity (a.u.)
20,AACCGTTAAGCGAAAGTGACGTGGGAATGACGTCGCAGGCCGGAGTCACCTAGTGCAG,15500 fluorescence intensity (a.u.)
21,GCCGCACGCGTGCCGTCGGTGCTCAGCGAGCTGACGGAGCCGGAGTCACCTAGTGCAG,3820 fluorescence intensity (a.u.)

# Copied from above for reference:
row,Sequence,binding signal
8,TCCCTTCCCTGTTCCTGGCGACGTGTCACCTTCTTATTCGCGGAGTCACCTAGTGCAG,11000 fluorescence intensity (a.u.)
9,CAATAGACTTCAAGGAAGCATACCAATACCAGTAACCACACGGAGTCACCTAGTGCAG,40800 fluorescence intensity (a.u.)
10,ATAGGTTCTTTTATCAGTGTCACTGACACTTACATCGATGCGGAGTCACCTAGTGCAG,4550 fluorescence intensity (a.u.)
